Data as given in PubChem BioAssay AID588742 (Southern Research Specialized Biocontainment Screening …, 2011).
The list shows a part of the results, in another mix than the full data. Potency and affinity values are given separately. Activity calls are given as the source filed them. How the calls were made is not given here.

Test: viability of Vero cells under compound – cytotoxicity control for flavivirus capping enzyme inhibitors (AID 588742)
Details: cytotoxicity counter-screen; at 40 µM (top of the series)
In the case of `O=C1NN(c2ccccc2)C(=O)/C1=C/c1ccc(Sc2ccc(Cl)cc2)o1`, the viability was inactive: 95.4%.
